Here are results for two molecules from US20230416411A1.

Amino acid sequences for entries named in this document (tags omitted). A change or cut given only in a name is not applied to a line headed by its entry.
UniProt P07766: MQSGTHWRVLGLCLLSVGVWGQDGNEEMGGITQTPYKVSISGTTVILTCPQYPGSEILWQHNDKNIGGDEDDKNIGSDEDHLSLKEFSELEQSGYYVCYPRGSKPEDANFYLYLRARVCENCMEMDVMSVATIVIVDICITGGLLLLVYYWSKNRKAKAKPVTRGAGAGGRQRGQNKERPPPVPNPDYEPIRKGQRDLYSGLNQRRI
UniProt P17643: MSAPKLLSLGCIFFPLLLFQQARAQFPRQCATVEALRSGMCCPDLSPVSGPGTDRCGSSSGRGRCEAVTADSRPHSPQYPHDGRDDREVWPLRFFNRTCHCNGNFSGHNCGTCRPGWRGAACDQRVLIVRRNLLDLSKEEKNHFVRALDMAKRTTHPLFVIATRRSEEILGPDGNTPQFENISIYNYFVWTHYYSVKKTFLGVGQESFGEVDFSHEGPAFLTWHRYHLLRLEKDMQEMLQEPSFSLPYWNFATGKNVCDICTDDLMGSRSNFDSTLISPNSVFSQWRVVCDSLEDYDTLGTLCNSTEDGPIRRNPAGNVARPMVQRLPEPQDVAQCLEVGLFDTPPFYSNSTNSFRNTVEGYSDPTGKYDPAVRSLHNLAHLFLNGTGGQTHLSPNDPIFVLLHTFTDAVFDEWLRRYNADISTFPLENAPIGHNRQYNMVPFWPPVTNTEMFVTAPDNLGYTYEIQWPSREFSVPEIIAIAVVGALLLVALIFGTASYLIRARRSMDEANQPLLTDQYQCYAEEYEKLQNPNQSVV

Results are given in words; binding and its absence hold for the method and conditions named. Some binding calls cover weakened binding; strength is not graded here.

Assay [1] deals with human CD3 expressed on Jurkat NFAT reporter cells (human) (UniProt P07766). Nature of the assay: flow cytometry on Jurkat NFAT cells, labelled anti-human Fc secondary antibody. In general terms: A flow cytometer gives signals particle by particle.
Assay [2] has the same target. The experiment in a line: flow cytometry on Jurkat NFAT cells.
The target in assay [3] is recombinant TYRP1 (Sino Biologicals) (human) (UniProt P17643). Nature of the assay: SPR, relative active concentration after stress. A general note: In SPR one partner is held on a chip, and binding of the other changes the refractive index at the surface.

B1: CD3opt human IgG1 PGLALA (antibody, V domains shown)
VH: EVQLLESGGGLVQPGGSLRLSCAASGFQFSSYAMNWVRQAPGKGLEWVSRIRSKYNNYATYYADSVKGRFTISRDDSKNTLYLQMNSLRAEDTAVYYCVRHTTFPSSYVSYYGYWGQGTLVTVSS
VL: QAVVTQEPSLTVSPGGTVTLTCGSSTGAVTTSNYANWVQEKPGQAFRGLIGGTNKRAPGTPARFSGSLLGGKAALTLSGAQPEDEAEYYCALWYSNLWVFGGGTKLTVLR
Take B1: the binding result in assay [1] and in assay [2] was “binds” each time.

B2: TYRP1 IgG (antibody, V domains shown)
VH: QVQLVQSGAEVKKPGASVKVSCKASGFNIKDYFLHWVRQAPGQGLEWMGWINPDNGNTVYAQKFQGRVTMTADTSTSTVYMELSSLRSEDTAVYYCTRRDYTYEKAALDYWGQGTLVTVSS
VL: DIQMTQSPSSLSASVGDRVTITCRASGNIYNYLAWYQQKPGKVPKLLIYDAKTLADGVPSRFSGSGSGTDFTLTISSLQPEDVATYYCQHFWSLPFTFGQGTKLEIK
B2: in assay [3], the binding result is reported as “binds”.
